Source: patent US20100331424A1, “Use of Axomadol for Treatment of Arthrosis Pain” (Gruenenthal GmbH, priority 2007, published 2010)

System: CFA-hyperalgesia (CFA-HA)
Test: Antihyperalgesic effect in the chronic inflammation pain model (Complete Freund's Adjuvant, electronic von Frey)
Format: in vivo, Sprague Dawley rats
Conditions: rat, IV
Experimental: The test to determine the antihyperalgesic effect of axomadol in chronic inflammation pain was conducted on rats in the Complete Freund's Adjuvant animal model (CFA).
A model for chronic inflammation represents the monoarthritis triggered by the Complete Freund's Adjuvant (CFA). By injecting a small quantity of CFA (100 μg M. tuberculosis) into the back paw a local inflammatory reaction restricted in time to 2-4 weeks occurred.
Sprague Dawley rats from a commercial breeder (Janvier, Belgium) having a weight of 140-160 g were used as test animals. The CFA-HA was induced in rats by subplantar injection of CFA (100 μl of the 1 mg/ml mycobacteria (heat-killed M. tuberculosis)/oil suspension (IFA; Difco)) into the back paw (ipsilaterally). The injection day was defined as day 0 (d 0).
Hyperalgesia to a mechanical tactile stimulus was detected by means of an electronic von Frey measuring instrument (Somedic Electronic von Frey System, Somedic Sales AB, Horby, Sweden). The paw was stimulated by subplantar application. To quantify the sensitivity of both the ipsi- and the contralateral paw to the mechanical stimulus, the paw pull-away threshold was given in grams of applied pressure. The median was formed from the four measured values per paw. The pull-away threshold of the ipsi- and contralateral paw was determined on day 1 after CFA injection before (=initial value) and at different times (15, 20 and 60 minutes) after substance dose (measured value). The efficacy of a substance was calculated as % inhibition of hyperalgesia as follows:
% inhibition of HA=(1−HA measured value/HA initial value)×100
HA initial value=pull away threshold contralateral−pull away threshold ipsilateral before substance dose
HA measured value=pull away threshold contralateral−pull away threshold ipsilateral after substance dose
In total, 10 rats were used in each test animal group. The mean±SEM was calculated from the medians of the individual animals. The significance calculation was conducted using the two-factor analysis of the variance (ANOVA) for repeated measurements. In the case of a significant treatment effect, a comparison in pairs was conducted at different measurement times by a Fisher's significance test, followed by a post hoc Dunnett test. The results were assessed as statistically significant at p<0.05.
In order to determine the maximum efficacy, the substance was administered intravenously (IV) up to the maximum possible dose.

## COc1cccc(C2(O)CCCCC2CN(C)C)c1 (stereo not shown) [Tramadol]
Dose 2.15 mg/kg
  % Inhibition of HA: 5%
Dose 4.64 mg/kg
  % Inhibition of HA: 29%
Dose 6.81 mg/kg
  % Inhibition of HA: 28%
Dose of maximum: axomadol-HCl 10, morphine 2.15, oxycodone 0.681, tramadol 4.64 mg/kg
  Max. effect (maximum % inhibition of hyperalgesia): Max. effect = 29% at 4.64 mg/kg.
